The values below come from the supplement of paper PMC9549374.

Some of the results follow. Cut-off read from the data, not from the text of the source: active = 2-fold of DMSO or more and inactive = the rest. Single values of this set are uncertain. Some low values are a fixed figure set by the source, not a measured ratio.

This test has as its system CM7/1-hgem mouse ES cell-derived cardiomyocytes. Kind of test: maximal number of mAG-hGem(1/110)-positive cardiomyocytes over 96 h, fold-change vs DMSO; higher = more cardiomyocyte cell cycle activity. As to conditions: 1 µM; 96 (max over 12 h time points) h.
On to `CC1=NCCc2c1[nH]c1cc(O)ccc21`, for which the maximal number is inactive: 1.
The result for `CC(C)(O)[C@@H]1[C@H]2OC(=O)[C@@H]1[C@]1(O)C[C@H]3O[C@]34C(=O)O[C@H]2[C@]14C` reads inactive: 1; that for `C[C@@H](N)[C@@H](O)c1ccccc1`, inactive: 1; that for `CCC(C)C(=O)O[C@@H]1C[C@@]2(C)[C@H](c3ccoc3)OC(=O)CC23OC2(C)O[C@]14[C@]1(C)[C@@H](CC(=O)OC)C5(C)CC1(O)[C@](O)(C5OC(=O)C1(C)OC1C)[C@@H](OC(C)=O)[C@]34O2` (stereo partly drawn), inactive: 1.
In the case of `CC1(C)C2CC(=O)[C@]3(C)C(CC[C@@]4(C)[C@H](c5ccoc5)OC(=O)C5OC543)[C@@]2(C)[C@@H](O)C[C@H]1O` (stereo partly drawn), the maximal number is inactive: 0.5.
As for `C[C@]12CCC(=O)C(O)=C1CC[C@@H]1[C@@H]2CC[C@]2(C)C(=O)CC[C@@H]12`, the maximal number was inactive: 1.
The result for `COc1cc2c(cc1-c1cc3cc4ccoc4cc3oc1=O)OCO2` reads inactive: 1; that for `C=C[C@H]1CN2CC[C@H]1C[C@@H]2[C@@H](O)c1ccnc2ccccc12`, inactive: 1.
In the case of `COc1ccc2c(c1O)-c1c(OC)c(OC)cc3c1[C@H](C2)N(C)CC3`, the maximal number is inactive: 1.
Take `CC(C)=CCCC1(C)C=Cc2c(O)c3c(c(CC=C(C)C)c2O1)OC12C(CC4CC1C(C)(C)OC2(C/C=C(/C)C(=O)O)C4O)C3=O` (stereo not drawn): the maximal number was inactive: 1.
For `C=C(C)[C@H]1CN[C@H](C(=O)O)[C@H]1CC(=O)O`, the maximal number is inactive: 1.
Take `CC(C)=CCOc1c2occc2cc2ccc(=O)oc12`: the maximal number is inactive: 1.
As to `COc1cc2ccc(=O)oc2c2ccoc12`, the maximal number was inactive: 0.
